{"source": "PubChem BioAssay AID1259286 (Sanger Institute, 2017)", "assay": "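Kinome knock-downs lethal on their own or synergistic with anchor drugs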 (primary screen)", "cell system": "NCI-H630 human colorectal cancer cells", "reagents": "siRNA pool against human genes", "treatment": "anchor drugs BYL719 at 1 µM, cetuximab at 5 µg/ml or trametinib at 10 nM, or DMSO vehicle alone; exposure time not given", "detection": "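Replicate-averaged viability as a fraction of non-targeting control, knock-down-alone robust z-score, and per-drug synergy scores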", "reading the numbers": "viability z-score, knock-down alone: higher = more viable cells, weaker knock-down effect", "rule for the call": "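a gene is called essential when its knock-down-alone viability robust z-score is below -3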", "calls": "active = essential when knocked down alone; inactive = not essential alone", "note": "In all, the deposit lists 794 reagents; shown is an unselected part. In the full data, 17 (2.1%) got an active call. 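Calls use knock-down alone only; synergy above 0.15 marked separately; viability seems capped at control level; exposure time not given.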 Further read-outs or replicates are left out here. Not given: the amount of reagent, the time to read-out."}
{"gene knocked down": "PIP4K2B", "viability z-score, knock-down alone": 0.464, "call": "inactive"}
{"gene knocked down": "KRAS", "viability z-score, knock-down alone": 0.464, "call": "inactive"}
{"gene knocked down": "INSR", "viability z-score, knock-down alone": -0.237, "call": "inactive"}
{"gene knocked down": "DDR1", "viability z-score, knock-down alone": 0.464, "call": "inactive"}
{"gene knocked down": "CDK11B", "viability z-score, knock-down alone": 0.464, "call": "inactive"}
{"gene knocked down": "CDK6", "viability z-score, knock-down alone": 0.464, "call": "inactive"}

Reformatted: results already given
gene knocked down,"viability z-score, knock-down alone",call
PIP4K2B,0.464,inactive
KRAS,0.464,inactive

More records follow.
{"gene knocked down": "CDK15", "viability z-score, knock-down alone": 0.464, "call": "inactive"}
{"gene knocked down": "GSK3A", "viability z-score, knock-down alone": -1.4, "call": "inactive"}
{"gene knocked down": "PRKAB2", "viability z-score, knock-down alone": 0.464, "call": "inactive"}
{"gene knocked down": "RFK", "viability z-score, knock-down alone": 0.464, "call": "inactive"}
{"gene knocked down": "BMP2K", "viability z-score, knock-down alone": -1.44, "call": "inactive"}
{"gene knocked down": "DLG2", "viability z-score, knock-down alone": 0.464, "call": "inactive"}
